From ChEMBL document CHEMBL5338817, “Discovery of Exceptionally Potent, Selective, and Efficacious PROTAC Degraders of CBP and p300 Proteins” (J Med Chem, 2023)
Activity calls are given as the source filed them. The rule behind the calls is not given here.

Chains of the proteins cited; added tags and fusions are not shown.
UniProt Q09472, whole entry: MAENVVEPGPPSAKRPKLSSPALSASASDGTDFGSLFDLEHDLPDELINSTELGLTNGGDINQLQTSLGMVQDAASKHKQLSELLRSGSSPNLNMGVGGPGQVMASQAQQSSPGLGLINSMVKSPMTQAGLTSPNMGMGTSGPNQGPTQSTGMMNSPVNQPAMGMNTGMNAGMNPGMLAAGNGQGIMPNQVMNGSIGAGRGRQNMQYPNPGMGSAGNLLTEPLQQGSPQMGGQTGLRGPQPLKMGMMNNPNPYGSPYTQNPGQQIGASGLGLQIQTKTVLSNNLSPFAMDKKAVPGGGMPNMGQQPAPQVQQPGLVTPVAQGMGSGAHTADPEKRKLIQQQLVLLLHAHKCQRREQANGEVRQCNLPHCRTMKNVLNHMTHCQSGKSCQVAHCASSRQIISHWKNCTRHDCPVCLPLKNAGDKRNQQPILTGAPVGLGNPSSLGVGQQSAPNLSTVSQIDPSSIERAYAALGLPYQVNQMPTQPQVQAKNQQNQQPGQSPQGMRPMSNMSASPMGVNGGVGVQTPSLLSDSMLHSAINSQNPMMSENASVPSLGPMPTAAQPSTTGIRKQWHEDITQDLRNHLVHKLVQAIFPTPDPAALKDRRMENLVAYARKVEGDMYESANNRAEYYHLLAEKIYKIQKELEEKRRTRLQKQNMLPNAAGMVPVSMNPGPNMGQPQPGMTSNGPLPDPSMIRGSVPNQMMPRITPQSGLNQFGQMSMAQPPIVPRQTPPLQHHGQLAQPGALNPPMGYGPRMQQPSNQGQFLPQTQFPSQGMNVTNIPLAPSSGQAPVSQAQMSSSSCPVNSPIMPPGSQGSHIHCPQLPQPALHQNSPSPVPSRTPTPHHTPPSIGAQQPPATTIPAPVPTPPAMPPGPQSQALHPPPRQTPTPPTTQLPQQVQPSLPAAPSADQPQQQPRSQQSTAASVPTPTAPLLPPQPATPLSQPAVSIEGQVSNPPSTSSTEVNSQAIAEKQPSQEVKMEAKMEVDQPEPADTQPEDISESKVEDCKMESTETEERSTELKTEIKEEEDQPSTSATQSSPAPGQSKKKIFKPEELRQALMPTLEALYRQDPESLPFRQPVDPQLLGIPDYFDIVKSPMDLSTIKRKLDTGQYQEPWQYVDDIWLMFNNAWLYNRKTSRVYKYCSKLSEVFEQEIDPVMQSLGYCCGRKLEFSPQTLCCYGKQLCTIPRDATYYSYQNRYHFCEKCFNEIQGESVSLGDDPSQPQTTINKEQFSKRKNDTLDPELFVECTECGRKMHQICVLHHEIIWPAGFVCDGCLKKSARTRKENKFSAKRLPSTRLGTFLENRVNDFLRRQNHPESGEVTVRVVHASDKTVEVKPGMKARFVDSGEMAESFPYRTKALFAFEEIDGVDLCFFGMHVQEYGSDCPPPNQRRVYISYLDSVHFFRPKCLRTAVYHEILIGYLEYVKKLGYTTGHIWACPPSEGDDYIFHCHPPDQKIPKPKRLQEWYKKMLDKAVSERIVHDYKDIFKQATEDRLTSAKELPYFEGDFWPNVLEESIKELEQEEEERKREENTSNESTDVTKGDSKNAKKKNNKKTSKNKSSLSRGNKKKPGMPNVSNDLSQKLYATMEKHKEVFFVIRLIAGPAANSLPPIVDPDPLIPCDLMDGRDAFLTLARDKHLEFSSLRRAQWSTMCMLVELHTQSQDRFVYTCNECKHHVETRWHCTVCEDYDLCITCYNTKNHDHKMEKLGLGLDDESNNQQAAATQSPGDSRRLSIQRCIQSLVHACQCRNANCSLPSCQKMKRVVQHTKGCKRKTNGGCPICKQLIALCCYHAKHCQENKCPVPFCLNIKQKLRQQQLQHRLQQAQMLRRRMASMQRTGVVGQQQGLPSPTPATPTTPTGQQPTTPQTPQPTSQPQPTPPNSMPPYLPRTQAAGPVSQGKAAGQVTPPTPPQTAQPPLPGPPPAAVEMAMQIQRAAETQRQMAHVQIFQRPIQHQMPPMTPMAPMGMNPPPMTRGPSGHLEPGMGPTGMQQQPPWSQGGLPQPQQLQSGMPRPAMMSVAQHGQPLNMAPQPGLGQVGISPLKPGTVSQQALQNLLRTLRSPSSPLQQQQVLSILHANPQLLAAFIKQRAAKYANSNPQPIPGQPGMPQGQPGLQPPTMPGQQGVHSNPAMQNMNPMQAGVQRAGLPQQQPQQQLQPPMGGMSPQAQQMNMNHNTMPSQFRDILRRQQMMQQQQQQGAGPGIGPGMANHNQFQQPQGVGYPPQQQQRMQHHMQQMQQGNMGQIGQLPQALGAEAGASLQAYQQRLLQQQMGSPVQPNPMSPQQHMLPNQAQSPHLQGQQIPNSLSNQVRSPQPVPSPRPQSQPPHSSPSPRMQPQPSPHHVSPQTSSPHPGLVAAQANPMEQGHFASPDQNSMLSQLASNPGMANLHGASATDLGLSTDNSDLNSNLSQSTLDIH

Target: Histone acetyltransferase p300 (Homo sapiens, UniProt Q09472)
Assay: Induction of p300 degradation in human RS4-11 cells at 1 uM incubated for 3 hrs by Proteomics analysis
Type: cell-based

## CNC(=O)c1ccc(-c2cc3cccc(-c4nn(C5CCOCC5)c5c4CN(C(C)=O)CC5)c3cn2)cn1
  Activity: inactive
